Values from PubChem BioAssay AID686943 (Drosophila RNAi Screening Center, 2013).

Screen: 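Knockdowns that increase or decrease active ERK after insulin receptor stimulation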 (primary screen)
System: Drosophila S2R+ haemocyte-like cells expressing YFP-tagged ERK (Rolled)
Reagent: long dsRNA against Drosophila genes
Treatment: insulin stimulation versus unstimulated cells; dose and duration not given
Measured: 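Antibody staining for doubly phosphorylated ERK divided by ERK-YFP signal, as plate z-scores, in insulin-treated and untreated cells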
Scale: replicate 1, z-score of dpERK with insulin: higher = more active ERK per ERK-YFP after insulin
The deposit covers about 23,000 reagents; this is a random part of those with a known target gene and a result. 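Extra replicates exist only for a retested subset of genes; insulin dose and duration not given; both raised and lowered dpERK matter.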 Names joined by + are all predicted targets of the reagent. Further read-outs or replicates are left out here. No sequences are given here. Not stated in the record: the amount of reagent, the time to read-out.

CG4702 [DRSC15626]
- replicate 1, z-score of dpERK with insulin: 0.29

CG11563 [DRSC14327]
- replicate 1, z-score of dpERK with insulin: -0.41

Pten [DRSC03402]
- replicate 1, z-score of dpERK with insulin: -2.97

Srg1 [DRSC14640]
- replicate 1, z-score of dpERK with insulin: 0.51

l(1)G0196 [DRSC20591]
- replicate 1, z-score of dpERK with insulin: -1.71

l(1)G0196 [DRSC20629]
- replicate 1, z-score of dpERK with insulin: -0.77

CG7601 [DRSC14131]
- replicate 1, z-score of dpERK with insulin: -0.91

CG17198 + CG17197 [DRSC15190]
- replicate 1, z-score of dpERK with insulin: 1

CG17198 + CG17197 [DRSC15191]
- replicate 1, z-score of dpERK with insulin: 0.66

CG14722 [DRSC14944]
- replicate 1, z-score of dpERK with insulin: -0.14

SCOT [DRSC08186]
- replicate 1, z-score of dpERK with insulin: 0.23

tub [DRSC12389]
- replicate 1, z-score of dpERK with insulin: 0.23

tub [DRSC22800]
- replicate 1, z-score of dpERK with insulin: 0.12

Lsm12a [DRSC19702]
- replicate 1, z-score of dpERK with insulin: -0.43

bma [DRSC09896]
- replicate 1, z-score of dpERK with insulin: 0.02

bma [DRSC10164]
- replicate 1, z-score of dpERK with insulin: -0.17

CG31076 [DRSC16017]
- replicate 1, z-score of dpERK with insulin: 0.29

CG31111 [DRSC14649]
- replicate 1, z-score of dpERK with insulin: -0.8

cutlet [DRSC00284]
- replicate 1, z-score of dpERK with insulin: 0.06

Targets above whose target name starts with C or c:
CG4702 [DRSC15626]
- replicate 1, z-score of dpERK with insulin: 0.29

CG11563 [DRSC14327]
- replicate 1, z-score of dpERK with insulin: -0.41

CG7601 [DRSC14131]
- replicate 1, z-score of dpERK with insulin: -0.91

CG17198 + CG17197 [DRSC15190]
- replicate 1, z-score of dpERK with insulin: 1

CG17198 + CG17197 [DRSC15191]
- replicate 1, z-score of dpERK with insulin: 0.66

CG14722 [DRSC14944]
- replicate 1, z-score of dpERK with insulin: -0.14

CG31076 [DRSC16017]
- replicate 1, z-score of dpERK with insulin: 0.29

CG31111 [DRSC14649]
- replicate 1, z-score of dpERK with insulin: -0.8

cutlet [DRSC00284]
- replicate 1, z-score of dpERK with insulin: 0.06

The listing continues.
aly [DRSC08707]
- replicate 1, z-score of dpERK with insulin: -0.02

aly [DRSC21784]
- replicate 1, z-score of dpERK with insulin: 0.12

CkIIalpha-i1 [DRSC11115]
- replicate 1, z-score of dpERK with insulin: 0.84

CG43774 + CG43773 [DRSC00287]
- replicate 1, z-score of dpERK with insulin: -0.48

CG43774 + CG43773 [DRSC00288]
- replicate 1, z-score of dpERK with insulin: 1.43

Apc2 [DRSC14115]
- replicate 1, z-score of dpERK with insulin: -0.18

snRNA:U1:95Cc + snRNA:U1:95Cb [DRSC13641]
- replicate 1, z-score of dpERK with insulin: 0.96

jv [DRSC08831]
- replicate 1, z-score of dpERK with insulin: -0.5

jv [DRSC08832]
- replicate 1, z-score of dpERK with insulin: -0.31

tilB [DRSC20634]
- replicate 1, z-score of dpERK with insulin: -0.35

Crz [DRSC16615]
- replicate 1, z-score of dpERK with insulin: 0.09

CG30357 [DRSC22472]
- replicate 1, z-score of dpERK with insulin: 0.02
